Source: PMC11633487

Amino acid sequences for entries named in this document (tags omitted). A change or cut given only in a name is not applied to a line headed by its entry.
UniProt Q9UMS4: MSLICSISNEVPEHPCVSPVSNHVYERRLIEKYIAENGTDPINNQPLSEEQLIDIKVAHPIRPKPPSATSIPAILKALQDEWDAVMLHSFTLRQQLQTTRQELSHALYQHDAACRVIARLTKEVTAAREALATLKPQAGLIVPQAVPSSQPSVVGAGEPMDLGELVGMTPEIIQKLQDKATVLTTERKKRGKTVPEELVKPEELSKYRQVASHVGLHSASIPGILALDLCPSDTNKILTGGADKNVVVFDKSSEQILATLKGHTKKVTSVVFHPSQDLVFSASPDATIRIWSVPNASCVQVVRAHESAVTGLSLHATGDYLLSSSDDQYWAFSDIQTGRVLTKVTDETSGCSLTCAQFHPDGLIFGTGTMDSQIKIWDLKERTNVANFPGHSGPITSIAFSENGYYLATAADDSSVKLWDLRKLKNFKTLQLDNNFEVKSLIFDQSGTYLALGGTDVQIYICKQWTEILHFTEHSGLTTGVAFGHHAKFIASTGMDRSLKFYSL
UniProt P17844: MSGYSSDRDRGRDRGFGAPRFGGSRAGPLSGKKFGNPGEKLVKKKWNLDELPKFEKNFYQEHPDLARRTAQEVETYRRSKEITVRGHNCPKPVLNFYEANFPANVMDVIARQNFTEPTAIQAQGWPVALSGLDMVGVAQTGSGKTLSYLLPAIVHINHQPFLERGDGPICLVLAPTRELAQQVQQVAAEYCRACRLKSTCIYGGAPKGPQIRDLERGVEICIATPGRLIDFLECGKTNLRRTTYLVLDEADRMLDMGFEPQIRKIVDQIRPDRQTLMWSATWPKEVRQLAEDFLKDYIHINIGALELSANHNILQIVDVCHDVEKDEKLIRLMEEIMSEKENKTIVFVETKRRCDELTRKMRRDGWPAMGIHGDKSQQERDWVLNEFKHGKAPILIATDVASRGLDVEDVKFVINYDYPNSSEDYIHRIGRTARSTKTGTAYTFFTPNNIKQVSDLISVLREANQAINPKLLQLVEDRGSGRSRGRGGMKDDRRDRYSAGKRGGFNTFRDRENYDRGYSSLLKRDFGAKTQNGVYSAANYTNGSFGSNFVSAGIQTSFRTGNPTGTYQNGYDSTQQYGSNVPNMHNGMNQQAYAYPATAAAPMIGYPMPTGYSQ

Target: PRP19-Myc with N-terminal U-box domain mutation (UniProt Q9UMS4)
Test: co-IP; HEK293T cells transfected with PRP19-Myc plasmids (domain mutations) for 48 h; lysates precipitated with anti-DDX5 and with anti-Myc antibodies, western blot

“DDX5 in HEK293T cells (from UniProt P17844 1-614)” was tested, and the binding was “no binding”.

These are yes or no findings as the source states them, for the method shown. Binding seen in cells or lysates may run through a third protein.
